Results on one molecule are retold here after US20160046678A1 (ZYNGENIA, published 2016).

No constants are given. Whether binding was seen depends on the method and setting. Some entries that bind do so weakly or less than the wild type.

This assay addresses T1, Angiopoietin-2 (Ang2) (human, UniProt O15123 19-496, biotin label in Examples 22-24).
T1 construct: also called rhAng2; recombinant Ang2
T1 sequence (looked up): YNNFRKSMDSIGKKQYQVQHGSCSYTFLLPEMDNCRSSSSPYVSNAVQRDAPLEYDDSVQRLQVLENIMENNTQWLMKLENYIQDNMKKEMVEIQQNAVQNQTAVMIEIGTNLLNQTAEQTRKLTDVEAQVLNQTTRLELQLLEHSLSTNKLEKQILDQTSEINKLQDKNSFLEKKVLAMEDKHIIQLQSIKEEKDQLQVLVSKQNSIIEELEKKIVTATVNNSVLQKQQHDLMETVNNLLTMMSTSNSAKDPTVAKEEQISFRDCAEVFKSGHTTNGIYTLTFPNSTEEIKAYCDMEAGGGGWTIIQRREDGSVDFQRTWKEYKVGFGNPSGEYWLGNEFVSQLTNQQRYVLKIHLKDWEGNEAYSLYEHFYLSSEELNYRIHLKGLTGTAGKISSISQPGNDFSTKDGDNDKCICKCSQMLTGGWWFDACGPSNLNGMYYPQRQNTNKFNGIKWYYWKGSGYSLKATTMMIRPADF
Briefly: Example 48, method not detailed.

B1: ANG183 (peptide)
peptide: SLTTFIDCYFYPNPPHCY
As for B1, the binding result is “binds”.
